Assay results from article PMC4986891.
Results are given in words; binding and its absence hold for the method and conditions named. In cells and extracts the contact can be indirect. A result given as binding can be weak or reduced; the word gives no strength.

Amino acid sequences for entries named in this document (tags omitted). A change or cut given only in a name is not applied to a line headed by its entry.
UniProt Q1MTR2: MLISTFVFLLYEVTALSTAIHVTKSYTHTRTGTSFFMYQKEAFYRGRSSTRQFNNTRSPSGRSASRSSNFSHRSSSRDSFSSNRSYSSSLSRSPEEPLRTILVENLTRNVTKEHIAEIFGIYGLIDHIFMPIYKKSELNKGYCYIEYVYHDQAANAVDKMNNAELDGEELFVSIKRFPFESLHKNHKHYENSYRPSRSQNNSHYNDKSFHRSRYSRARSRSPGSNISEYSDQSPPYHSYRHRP
UniProt Q10055: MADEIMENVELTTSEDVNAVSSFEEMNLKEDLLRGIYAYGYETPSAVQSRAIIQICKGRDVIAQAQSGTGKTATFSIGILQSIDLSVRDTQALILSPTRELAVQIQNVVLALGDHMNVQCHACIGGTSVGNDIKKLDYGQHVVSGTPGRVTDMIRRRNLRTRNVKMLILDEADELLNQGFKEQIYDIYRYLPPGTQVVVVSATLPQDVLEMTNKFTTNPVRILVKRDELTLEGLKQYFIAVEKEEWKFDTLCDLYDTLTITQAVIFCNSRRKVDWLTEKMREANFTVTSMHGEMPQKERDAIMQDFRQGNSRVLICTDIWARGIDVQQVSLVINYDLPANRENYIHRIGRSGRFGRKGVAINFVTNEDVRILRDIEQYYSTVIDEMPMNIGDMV

Molecular target: Rnps1-GFP (S. pombe) (UniProt Q1MTR2)
Test: co-IP; S. pombe whole-cell lysates (Benzonase-treated) of strains with epitope-tagged proteins; FTP-tagged proteins pulled down with IgG Sepharose, Myc-, HA- and GFP-tagged proteins with Protein A/G agarose and antibody; IP 2 h at 4 C; Western blot; also done in strains lacking Y14 or Rnps1

**Q.** With pFal1-Myc (from UniProt Q10055 1-394) as the substance, how does the binding read?
**A.** The binding was “binds”.
